In PubChem BioAssay AID1347076 (National Center for Advancing Translational Sciences (NCATS), 2019):
“And” between values parts separate entries of the source, which are not always exact repeats. Equal entries are not always repeated. Among all 400,000 compounds or so, about 13,000 (3.2%) were called active. Inconclusive results, whose numbers are uncertain, are shown with a selection of clear calls. Calls follow the shape of the dose curve; as a rule, active = well fitted cell-killing curve with a large enough effect; inconclusive = small, poorly fitted or top-dose-only effect, or effect the other way; inactive = flat fitted curve, though single readings scatter. A potency beside an inconclusive call is a rough fit, not a confirmed value.

Experiment: qHTS assay for MDR1-selective chemotherapeutics: Primary screen using the drug-selected MDR subline cells KB-V1; also: nearly all actives have a fitted effect of over 60% in size
Conditions: KB-V1 MDR cells viability, CellTiter-Glo, 72 h; activity change, negative = cytotoxicity: at 46.1 µM (top of the series)
Method in brief: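 KB-V1 MDR subline cells in DMEM (phenol-red free, 10% FBS) exposed to compounds in qHTS concentration series for 72 h at 37 degrees C. Viability read by CellTiter-Glo luminescence; concentration-effect curves fitted after normalization and correction.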
% is scaled to controls: 0 for no effect and ±100 for the full control effect; potency is read from the fitted curve at half-maximal effect.

| SMILES | activity change, negative = cytotoxicity | Potency |
| --- | --- | --- |
| Oc1ccccc1C1N=C(c2ccccc2)NC(c2ccccc2)=N1 | inactive: -8.32% | – |
| COC(=O)CC1C(=O)NCCN1C(=S)Nc1ccc(F)cc1 (stereo unspecified) | – | inconclusive: 18.4 µM [rising, partial curve] |
| O=C(COC(=O)c1ccc(F)cc1F)NCc1ccc2c(c1)OCO2 | inactive: -6.59% | – |
| CC(C(=O)NC(C)(C)C)N(C(=O)CS(=O)CC(=O)Nc1ccc(F)cc1)c1ccccc1F (stereo unspecified) | inactive: 29.9% | – |
| O=C(Nc1ccc(Cl)c(Cl)c1)Nc1nnc(CSc2ccccc2)s1 | – | active: 14.6 µM |
| O=C(C1CC1)N1CCc2cc(Br)cc(S(=O)(=O)N3CCCCCC3)c21 | – | active: 9.2 µM |
| C=CCc1cccc2cc(C(=O)OCC)c(=O)oc12 | – | inconclusive: 1.3 µM [rising, full curve, poor fit] |
| Cc1ccccc1OCC(=O)OCC(=O)NCc1ccccc1Cl | inactive: 0% | – |
| CCOc1ccccc1NC(=O)CN1CCCN(Cc2cccc(Cl)c2)S1(=O)=O | – | inconclusive: 2.59 µM [cytotoxic, partial curve, poor fit] |
| CC(C)NC(=O)CSc1nc2ccccc2n1-c1ccccc1 | – | inconclusive: 25.9 µM [cytotoxic, single point] |
| CCOC(=O)C(C)Sc1nc2c(c(=O)[nH]c(=O)n2C)n1Cc1ccc(Cl)cc1 (stereo unspecified) | – | inconclusive: 0.231 µM [cytotoxic, full curve] |
| CCCCNc1c(-c2ccc(SC3CCCCC3)c(OC)c2)nc2ccc(C)cn12 | – | inconclusive: 9.2 µM [cytotoxic, partial curve] and inconclusive: 29.1 µM [cytotoxic, single point] |
| COc1cc(C(=O)OCc2cc(=O)n3nc(C(C)C)sc3n2)cc(OC)c1OC | inactive: -2.2% | – |
| Cc1cccc(C(=O)NNC(=O)C2CC2)c1 | – | inconclusive: 4.11 µM [rising, full curve, poor fit] |
| COc1cccc(CNC(=O)COCc2cc(-c3ccc4c(c3)OCO4)on2)c1 | inactive: -6.76% | – |
| CCCc1ncc(C(O)(c2ccccc2)c2ccc(C)cc2)n1C (stereo unspecified) | – | inconclusive: 18.4 µM [cytotoxic, single point] |
| Cc1nc2ncnn2c(C)c1CCC(=O)N1CCN(c2cccc(Cl)c2)CC1 | – | inconclusive: 29.1 µM [rising, single point] |
| c1ccc2c(-c3nn4nnnc4c4ccccc34)cccc2c1 | – | inconclusive: 14.6 µM [cytotoxic, partial curve] |
| COc1cccc(C(N)c2nc(-c3csc4ccccc34)cs2)c1 (stereo unspecified) | – | active: 8.2 µM |
| COC(=O)c1ccccc1S(=O)(=O)N1CCC(C(=O)NCC2CCCO2)CC1 (stereo unspecified) | – | inconclusive: 23.1 µM [rising, partial curve, poor fit] |
| CCCOc1ccccc1C1NC(=O)NC(C)=C1C(=O)OCCOC(C)C (stereo unspecified) | – | inconclusive: 8.2 µM [cytotoxic, partial curve] |
| COC(=O)c1ccc2nc(-c3ccc4c(c3)OCO4)cn2c1 | inactive: -18% | – |
| COc1ccc(-n2c(CCc3ccccc3)nnc2SCC(=O)c2ccc(Cl)cc2)cc1 | – | active: 5.8 µM |
| CCn1c(SCC(=O)N2CCN(c3cccc(Cl)c3)CC2)nc2ccccc2c1=O | – | active: 9.2 µM |

Two compounds picked at random from the list so far:

| SMILES | activity change, negative = cytotoxicity | Potency |
| --- | --- | --- |
| CCCCNc1c(-c2ccc(SC3CCCCC3)c(OC)c2)nc2ccc(C)cn12 | – | inconclusive: 9.2 µM [cytotoxic, partial curve] and inconclusive: 29.1 µM [cytotoxic, single point] |
| CC(C(=O)NC(C)(C)C)N(C(=O)CS(=O)CC(=O)Nc1ccc(F)cc1)c1ccccc1F (stereo unspecified) | inactive: 29.9% | – |

(further entries)

| SMILES | activity change, negative = cytotoxicity | Potency |
| --- | --- | --- |
| O=C(Cn1c(=O)n(Cc2ccc(C(=O)NCc3ccccc3Cl)cc2)c(=O)c2ccccc21)Nc1ccc(F)c(Cl)c1 | inactive: 4.47% | – |
| COc1c(Br)cc([N+](=O)[O-])c(OC)c1C(=O)NC(=O)Nc1c(Cl)cccc1Cl | – | inconclusive: 16.4 µM [rising, single point] |
| Nc1ccc2c(c1)ncn2CCCn1cnc2cc(N)ccc21 | inactive: 6.04% | – |
| CCc1ccc(C2CC(c3cccc(Cl)c3)n3nc(N)nc3N2)cc1 (stereo unspecified) | inactive: 16.5% | – |
| CCC1CCCCN1C(=O)c1cc(COc2ccc3ncccc3c2)on1 (stereo unspecified) | – | active: 1.64 µM |
| C=CCOc1cccc(C(=O)N2CCCC(Nc3ccc(F)cc3)C2)c1 (stereo unspecified) | – | inconclusive: 9.2 µM [cytotoxic, partial curve] |
| COc1ccc(OC)c(C2C3=C(N=c4s/c(=C\c5cccc(O)c5)c(=O)n42)c2ccccc2CC3)c1 (stereo unspecified) | – | inconclusive: 29.1 µM [cytotoxic, single point] |
| Cc1ccc(-n2c(C)nc3ncnc(-c4ccccc4)c32)cc1 | – | inconclusive: 29.1 µM [cytotoxic, single point] |
| O=[N+]([O-])c1ccc(N2CCCC2)cc1NC1CC1 | – | active: 20.6 µM |
| COc1ccc(S(=O)(=O)N2c3ccccc3OCC2C)cc1 (stereo unspecified) | – | inconclusive: 2.06 µM [cytotoxic, full curve, poor fit] |
| CCOC(=O)c1c(NC(=O)c2ccccc2)sc2c1CCc1ccccc1-2 | inactive: 7.95% | – |
| O=C(Nc1ccc(F)c(F)c1)NC1CCCCC1 | – | inconclusive: 29.1 µM [cytotoxic, single point] |
| CN(C)S(=O)(=O)c1ccc2c(c1)N(CC(=O)N1CCN(c3ccccc3F)CC1)CCS2 | – | inconclusive: 6.51 µM [cytotoxic, partial curve] |
| CCOc1ccc(NC(=O)Cc2ccc(S(=O)(=O)N3CCCCC3)cc2)cc1OCC | – | inconclusive: 29.1 µM [cytotoxic, single point] |
| CC1(c2ccccc2)CC(C)(C)N(C(=O)c2cc([N+](=O)[O-])cc([N+](=O)[O-])c2)c2ccccc21 (stereo unspecified) | – | inconclusive: 7.31 µM [cytotoxic, partial curve] |
| CCNC(=O)CCSc1nc2cc(Cl)ccc2o1 | inactive: 5.91% | – |
| Cc1ccc(OCCNC(=O)CNC(=O)c2ccccc2Cl)cc1 | – | inconclusive: 20.6 µM [cytotoxic, partial curve, poor fit] |
| N#Cc1c(F)cccc1N1CCC(C#N)CC1 | – | inconclusive: 16.4 µM [cytotoxic, partial curve, poor fit] |
| COc1cc2c(C#CCCO)c(-c3ccsc3)oc(=O)c2cc1OC | inactive: -47% | – |
| CCOC(=O)c1ccccc1NC(=O)COC(=O)CN1C(=O)NC2(CCCC2)C1=O | inactive: 1.26% | – |
| CCSCCOC(=O)C1=C(C)NC(=O)NC1c1ccc2c(c1)OCO2 (stereo unspecified) | – | inconclusive: 29.1 µM [rising, single point] |
| COc1ccc(/C=N/NC(=O)c2ccc(N(C)S(=O)(=O)c3ccccc3)cc2)cc1 | – | inconclusive: 25.9 µM [cytotoxic, partial curve, poor fit] |
| COc1ccccc1NC(=O)N(Cc1ccco1)Cc1cc2ccc(C)c(C)c2[nH]c1=O | – | active: 5.8 µM |
| Cc1ccccc1CNC(=O)c1sc2ncnc(N(C)C3CCCCC3)c2c1C | – | inconclusive: 14.6 µM [cytotoxic, single point] |

Molecules shown so far that contain an aryl methoxy group:

| SMILES | activity change, negative = cytotoxicity | Potency |
| --- | --- | --- |
| CCCCNc1c(-c2ccc(SC3CCCCC3)c(OC)c2)nc2ccc(C)cn12 | – | inconclusive: 9.2 µM [cytotoxic, partial curve] and inconclusive: 29.1 µM [cytotoxic, single point] |
| COc1cc(C(=O)OCc2cc(=O)n3nc(C(C)C)sc3n2)cc(OC)c1OC | inactive: -2.2% | – |
| COc1cccc(CNC(=O)COCc2cc(-c3ccc4c(c3)OCO4)on2)c1 | inactive: -6.76% | – |
| COc1cccc(C(N)c2nc(-c3csc4ccccc34)cs2)c1 (stereo unspecified) | – | active: 8.2 µM |
| COc1ccc(-n2c(CCc3ccccc3)nnc2SCC(=O)c2ccc(Cl)cc2)cc1 | – | active: 5.8 µM |
| COc1c(Br)cc([N+](=O)[O-])c(OC)c1C(=O)NC(=O)Nc1c(Cl)cccc1Cl | – | inconclusive: 16.4 µM [rising, single point] |
| COc1ccc(OC)c(C2C3=C(N=c4s/c(=C\c5cccc(O)c5)c(=O)n42)c2ccccc2CC3)c1 (stereo unspecified) | – | inconclusive: 29.1 µM [cytotoxic, single point] |
| COc1ccc(S(=O)(=O)N2c3ccccc3OCC2C)cc1 (stereo unspecified) | – | inconclusive: 2.06 µM [cytotoxic, full curve, poor fit] |
| COc1cc2c(C#CCCO)c(-c3ccsc3)oc(=O)c2cc1OC | inactive: -47% | – |
| COc1ccc(/C=N/NC(=O)c2ccc(N(C)S(=O)(=O)c3ccccc3)cc2)cc1 | – | inconclusive: 25.9 µM [cytotoxic, partial curve, poor fit] |
| COc1ccccc1NC(=O)N(Cc1ccco1)Cc1cc2ccc(C)c(C)c2[nH]c1=O | – | active: 5.8 µM |

Later entries.

| SMILES | activity change, negative = cytotoxicity | Potency |
| --- | --- | --- |
| COc1ccc(NC(=O)CN2CCCC2c2cccs2)cc1S(=O)(=O)N1CCCCC1 (stereo unspecified) | – | inconclusive: 20.6 µM [cytotoxic, single point] |
| CCOc1ccccc1Nc1nc(-c2cccnc2)cs1 | – | inconclusive: 9.2 µM [cytotoxic, partial curve, poor fit] |
| Cc1ccc(NC(=S)N2CCN(c3ccccn3)CC2)cc1C | inactive: 0.326% | – |
| Cc1cc(C)n(-c2ccc(C(=O)Nc3sccc3C(N)=O)cc2)n1 | – | active: 29.1 µM |
| CCc1ccc(CN2CCC(n3nccc3NC(=O)c3ccccc3Cl)CC2)cc1 | – | active: 18.4 µM |
| Cc1ccc(Nc2nc(N3CCOCC3)nc(N3CCOCC3)n2)cc1 | – | inconclusive: 29.1 µM [cytotoxic, single point] |
| CC(=O)Nc1nc(-c2cc([N+](=O)[O-])cs2)cs1 | – | inconclusive: 20.6 µM [rising, single point] |
| Nc1cc(Cl)ccc1Nc1ccncc1 | – | inconclusive: 6.51 µM [rising, partial curve] |
| CN(CCOc1ccccc1)C(=O)c1cc(S(=O)(=O)N2CCOCC2)ccc1Cl | – | inconclusive: 14.6 µM [cytotoxic, partial curve] |
| COc1ccc(N2CCN(CCNC(=O)Nc3ccc(Cl)cc3)CC2)cc1 | – | inconclusive: 20.6 µM [cytotoxic, partial curve, poor fit] |
| CC(=O)Nc1ccc2[nH]c(C)cc(=O)c2c1 | – | inconclusive: 20.6 µM [rising, single point] |
| CC1CC(C)CN(CCCNC(=O)CN2C(=O)c3cccnc3Oc3ccc(Cl)cc32)C1 (stereo unspecified) | – | inconclusive: 0.231 µM [rising, full curve] |
| CCOc1ccc(N2C(=O)CC(SC(=NC)Nc3cccc(F)c3)C2=O)cc1 (stereo unspecified) | inactive: -3.78% | – |
| COc1ccc(-c2nc3ccc(C)cn3c2Nc2ccc3c(c2)OCO3)cc1 | – | inconclusive: 29.1 µM [rising, single point] |
| CSc1nc2nc3c(cc2c(=O)n1-c1ccc(C)cc1)COC(C)(C)C3 | – | inconclusive: 0.092 µM [cytotoxic, full curve] |
| CN(CC1COc2ccccc2O1)C(=O)c1cc(COc2c(F)cccc2F)on1 (stereo unspecified) | – | inconclusive: 29.1 µM [cytotoxic, single point] |
| CC12CN(C(=O)c3ccc(Cl)cc3)C3(C#N)CC1CCC23C (stereo unspecified) | – | inconclusive: 16.4 µM [cytotoxic, single point] |
| O=C(NCCN1CCC(Cc2ccccc2)CC1)C1CCCN(S(=O)(=O)c2cnc[nH]2)C1 (stereo unspecified) | inactive: 5.33% | – |
| COc1ccc(N2CCN(CCCNC(=O)c3cc(Nc4ccccc4OC)nc4ccccc34)CC2)cc1 | – | inconclusive: 29.1 µM [cytotoxic, single point] |
| CN(CC(=O)Nc1ccc(Cl)c(C(F)(F)F)c1)C(=O)c1ccc(OCC2CCCO2)cc1 (stereo unspecified) | – | active: 7.31 µM |
| COc1cc2ccccc2cc1C(=O)O | inactive: 1.14% | – |
| CC(=O)OCn1ncc(N2CCOCC2)c(Br)c1=O | inactive: 0.0885% | – |
| Cc1ccc2nc(-c3ccc(C#N)cc3)c(Cc3ccccc3)n2c1 | – | inconclusive: 18.4 µM [cytotoxic, partial curve, poor fit] |
